The values below come from patent publication US20090196876A1.

Protein sequences, listed by entry. Tags and fused reporters are not part of them. Lines headed by an entry give the natural chain unless they say otherwise; changes in a name come on top.
UniProt P55075: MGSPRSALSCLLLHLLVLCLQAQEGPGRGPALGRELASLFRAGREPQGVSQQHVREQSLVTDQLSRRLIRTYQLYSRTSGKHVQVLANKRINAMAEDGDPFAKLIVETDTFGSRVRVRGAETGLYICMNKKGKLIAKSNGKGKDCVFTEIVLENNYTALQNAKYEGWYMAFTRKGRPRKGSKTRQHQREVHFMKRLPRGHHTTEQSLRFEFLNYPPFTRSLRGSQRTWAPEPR

Results are given in words; binding and its absence hold for the method and conditions named. Binding calls can cover weak binding; strength is not graded here. Sequences can lack the tags named with a protein.

The target of this experiment is T1, UNQ1900-ECD-Fc (human) (UniProt Q6UXG8).
T1 sequence: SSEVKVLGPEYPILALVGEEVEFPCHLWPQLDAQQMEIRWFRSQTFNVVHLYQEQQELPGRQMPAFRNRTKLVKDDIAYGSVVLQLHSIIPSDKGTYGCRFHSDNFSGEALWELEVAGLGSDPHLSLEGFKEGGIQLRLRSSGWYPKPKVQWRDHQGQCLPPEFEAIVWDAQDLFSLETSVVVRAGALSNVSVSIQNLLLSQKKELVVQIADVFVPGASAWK
In words: BiaCore; UNQ1900-ECD-Fc coated on chip, 275 proteins tested as analytes. On the technique in general: In SPR one partner is held on a chip, and binding of the other changes the refractive index at the surface.

Consider FGF8 (from UniProt P55075) (ligand), for which the binding result is recorded as “binds”.
